Source: PubChem BioAssay AID1224828 (NIAID, 2016)
The whole screen tested about 17,000 reagents; below is a random part of them. 762 of all reagents (4.5%) count as active. 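Active calls include both raised and lowered p65 entry, mostly lowered; wells with fewer than 50 cells lack a z-score.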 Raw values are not corrected between plates. A number with no mark means an inactive call.

Screen: 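Knock-downs that increase or decrease LPS-induced p65 nuclear translocation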 (primary screen)
Cell system: mouse RAW264.7 G9 macrophage reporter cells (GFP-p65, Tnf promoter-mCherry)
Reagents: siRNA pool against mouse genes, 100 nM
Time to read-out: 2 days siRNA transfection, then 40 min LPS before fixation
Conditions: LPS (Salmonella minnesota R595) at 10 ng/ml
Measured: 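Imaged p65 nuclear translocation ratio, normalised to the plate median, converted to robust z-scores and averaged across two replicates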
Reading the numbers: p65 translocation robust z-score: higher = more nuclear NF-kappaB p65 after LPS than the plate median; nuclear/cytoplasmic p65 ratio: higher = more nuclear NF-kappaB p65
Rule for the call: 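Active if robust z is above 3.3 (negative regulators) or below -1.56, the Tlr4 control median (positive regulators); activity score 50 or more; control wells not called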
Meaning of the calls: active = hit (p65 shift raised or lowered); inactive = no clear change

Silencing of Fancb resulted in: p65 translocation robust z-score 1.74; nuclear/cytoplasmic p65 ratio, rep 1 = 1.91; nuclear/cytoplasmic p65 ratio, rep 2 = 2.05; low cell count flag enough cells to score.
After knock-down of Arfgef1, the screen gave p65 translocation robust z-score 0.24; nuclear/cytoplasmic p65 ratio, rep 1 = 1.47; nuclear/cytoplasmic p65 ratio, rep 2 = 1.43; low cell count flag enough cells to score.
With knock-down of Slc16a11, the record shows p65 translocation robust z-score -1.96 (active); nuclear/cytoplasmic p65 ratio, rep 1 = 1.12; nuclear/cytoplasmic p65 ratio, rep 2 = 1.05; low cell count flag enough cells to score.
After knock-down of Kcnj16, the screen gave p65 translocation robust z-score 0.53; nuclear/cytoplasmic p65 ratio, rep 1 = 1.58; nuclear/cytoplasmic p65 ratio, rep 2 = 1.51; low cell count flag enough cells to score.
Depletion of Pdha2 resulted in: p65 translocation robust z-score -0.67; nuclear/cytoplasmic p65 ratio, rep 1 = 1.36; nuclear/cytoplasmic p65 ratio, rep 2 = 1.16; low cell count flag enough cells to score.

Reagents listed so far called active:
Slc16a11 → p65 translocation robust z-score = -1.96 (active); nuclear/cytoplasmic p65 ratio, rep 1 = 1.12; nuclear/cytoplasmic p65 ratio, rep 2 = 1.05; low cell count flag = enough cells to score

Continued:
Ccdc50 scored nuclear/cytoplasmic p65 ratio, rep 1 = 1.21; nuclear/cytoplasmic p65 ratio, rep 2 = 1.1; low cell count flag fewer than 50 cells per well; well left out of scoring.
Depletion of Or8g24 gave: p65 translocation robust z-score 1.27; nuclear/cytoplasmic p65 ratio, rep 1 = 1.7; nuclear/cytoplasmic p65 ratio, rep 2 = 1.31; low cell count flag enough cells to score.
After knock-down of Prmt8 the results were p65 translocation robust z-score 1.21; nuclear/cytoplasmic p65 ratio, rep 1 = 1.81; nuclear/cytoplasmic p65 ratio, rep 2 = 1.81; low cell count flag enough cells to score.
After knock-down of Bicc1, the record shows p65 translocation robust z-score -0.03; nuclear/cytoplasmic p65 ratio, rep 1 = 1.43; nuclear/cytoplasmic p65 ratio, rep 2 = 1.52; low cell count flag enough cells to score.
4632415L05Rik scored nuclear/cytoplasmic p65 ratio, rep 1 = 1.15; nuclear/cytoplasmic p65 ratio, rep 2 = 1.11; low cell count flag fewer than 50 cells per well; well left out of scoring.
Silencing of Ankrd33b gave: p65 translocation robust z-score 1.14; nuclear/cytoplasmic p65 ratio, rep 1 = 1.71; nuclear/cytoplasmic p65 ratio, rep 2 = 1.59; low cell count flag enough cells to score.
Against Dmgdh, the entry reads p65 translocation robust z-score -1.1; nuclear/cytoplasmic p65 ratio, rep 1 = 1.28; nuclear/cytoplasmic p65 ratio, rep 2 = 1.28; low cell count flag enough cells to score.
Col6a1 showed p65 translocation robust z-score 0.02; nuclear/cytoplasmic p65 ratio, rep 1 = 1.55; nuclear/cytoplasmic p65 ratio, rep 2 = 1.31; low cell count flag enough cells to score.
Knock-down of Pycard gave: p65 translocation robust z-score 0.32; nuclear/cytoplasmic p65 ratio, rep 1 = 1.65; nuclear/cytoplasmic p65 ratio, rep 2 = 1.67; low cell count flag enough cells to score.
